Laboratory results: PubChem BioAssay AID602196 (INSERM, 2012)
Screen: 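Modifiers of cisplatin sensitivity in A549 cells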. Cells: human A549 lung cancer cells. Reagents: siRNA pair against human genes. Duration: 48 h transfection before cisplatin; time from cisplatin to read-out not stated. Challenge: cisplatin at a dose killing half of control-siRNA cells; exact dose and duration not given. Read-out: 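Shift in cisplatin death relative to control siRNA, from -50 (all cells die) to +50 (no cells die); siRNAs harmful on their own scored 0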. Reading the numbers: two-siRNA summed score (-2 to +2): higher = both siRNAs protect from cisplatin killing; -2 means both sensitise; mean protection from cisplatin (shift in death) and protection from cisplatin (shift in death), siRNA C and protection from cisplatin (shift in death), siRNA D: higher = protection from cisplatin killing. Active means: 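siRNAs harmful alone (LDH or WST-1) get 0; others get +1 for less and -1 for more cisplatin killing; genes are active when the two siRNAs give the same sign, summing to ±2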. Meaning of the calls: active = both siRNAs shift cisplatin killing the same way; inactive = no consistent shift, or siRNA harmful alone.
The deposit covers about 23,000 reagents; below is a part drawn at random. Over the whole deposit, 455 (2%) were called active. 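Active includes both protection and sensitisation; some change values fall well beyond the stated -50 to +50 range.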 Reagents against one gene are numbered here. Not given: the amount of reagent.

| target gene | reagent | two-siRNA summed score (-2 to +2) | mean protection from cisplatin (shift in death) (%) | protection from cisplatin (shift in death), siRNA C (%) | protection from cisplatin (shift in death), siRNA D (%) | activity call |
| --- | --- | --- | --- | --- | --- | --- |
| VAV3 | 1 | -1 | -10.3 | 4 | -24.6 | inactive |
| LOC400704 | 1 | 0 | 4.9 | 3.5 | 6.3 | inactive |
| ZNF394 | 1 | 0 | -1 | -3.5 | 1.5 | inactive |
| NDUFB5 | 1 | -1 | -6.7 | -23.1 | 9.7 | inactive |
| GAS8-AS1 | 1 | -2 | -16.2 | -12.1 | -20.2 | active |
| LOC150928 | 1 | 0 | 7.4 | 8.5 | 6.2 | inactive |
| LOC440731 | 1 | 1 | 29 | 20.2 | 37.7 | inactive |
| LOC253584 | 1 | 0 | 4 | -5.9 | 14 | inactive |
| SMARCC1 | 1 | 0 | 10.2 | 15.6 | 4.7 | inactive |
| CPSF1 | 1 | 0 | 5.7 | 10.9 | 0.5 | inactive |
| ZNF548 | 1 | 0 | 9.2 | 9.3 | 9.1 | inactive |
| LOC401624 | 1 | 0 | 4.2 | 2.6 | 5.8 | inactive |
| CHRD | 1 | -1 | -7.7 | 1 | -16.5 | inactive |
| LOC441995 | 1 | 0 | 14.1 | 8.2 | 20.1 | inactive |
| BACH1 | 1 | 0 | 14.6 | 17.2 | 11.9 | inactive |
| BPY2 | 1 | 0 | 5.7 | 21.3 | -9.8 | inactive |
| ADGRL3 | 1 | 1 | 12.2 | 18.8 | 5.6 | inactive |
| IQCB1 | 1 | -1 | 0.5 | -9.3 | 10.2 | inactive |
| SLC13A1 | 1 | 0 | 13.4 | 19.2 | 7.7 | inactive |
| LOC400055 | 1 | 1 | 11.9 | 1.4 | 22.3 | inactive |
| POTEE | 1 | 0 | 12.5 | 18.6 | 6.4 | inactive |
| ZNF563 | 1 | 0 | 7.5 | 11.7 | 3.3 | inactive |
| LOC440562 | 1 | 0 | -1.1 | -1 | -1.1 | inactive |
| BCL6 | 1 | 0 | -3.7 | 2.9 | -10.3 | inactive |
| LOC401525 | 1 | 0 | 6.3 | 14 | -1.5 | inactive |
| PCDH9 | 1 | 0 | 9.6 | 8.9 | 10.3 | inactive |
| LOC400843 | 1 | 0 | 2.1 | -0.8 | 5.1 | inactive |
| SH2D2A | 1 | -1 | -14.2 | 0.6 | -29.1 | inactive |
| CDC42EP2 | 1 | 0 | 12.1 | 13.4 | 10.9 | inactive |
| CBFA2T3 | 1 | 0 | 8.9 | 20.1 | -2.2 | inactive |
| CCDC112 | 1 | 0 | 0.5 | -4.7 | 5.7 | inactive |
| MYEF2 | 1 | 0 | 2.9 | 0.5 | 5.2 | inactive |
| DYRK4 | 1 | 0 | 9.9 | 16.5 | 3.4 | inactive |
| LACRT | 1 | 1 | 18.9 | 18.8 | 18.9 | inactive |
| LOC392465 | 1 | 0 | 8.8 | 6 | 11.6 | inactive |
| LOC442520 | 1 | 0 | 10.4 | 17.8 | 3 | inactive |
| CCL8 | 1 | 0 | 2.4 | -0.5 | 5.2 | inactive |
| ZNF423 | 1 | 1 | 11.1 | 5.1 | 17.2 | inactive |
| SQLE | 1 | 0 | 6.7 | 4.3 | 9 | inactive |
| SUPT20H | 1 | 0 | 5.5 | 0.7 | 10.2 | inactive |
| SUPT20H | 2 | 0 | 15 | 17.6 | 12.4 | inactive |
| TYW5 | 1 | 0 | -3.6 | -12.7 | 5.4 | inactive |
| CDC25B | 1 | 1 | 13.7 | 5.1 | 22.4 | inactive |
| CPA5 | 1 | 0 | -20.8 | -18.6 | -23.1 | inactive |
| ZBTB17 | 1 | 0 | -11 | -11.5 | -10.4 | inactive |
| ITIH1 | 1 | 0 | -7.7 | -3.3 | -12.1 | inactive |
| ADGRD1 | 1 | 0 | 5.7 | 11 | 0.5 | inactive |
| LOC441781 | 1 | 2 | 20.7 | 19.4 | 22.1 | active |
| CKM | 1 | -1 | -16.7 | -15.1 | -18.4 | inactive |
| CLPSL2 | 1 | -1 | -8.1 | -5.5 | -10.7 | inactive |
| CLRN3 | 1 | 0 | 6.7 | -1.6 | 14.9 | inactive |
| KIF21A | 1 | 0 | 12 | 13.8 | 10.1 | inactive |
| RPL8 | 1 | 0 | 12.4 | 11.4 | 13.4 | inactive |
| TECPR1 | 1 | 0 | 0.5 | -4.9 | 5.9 | inactive |
| NSL1 | 1 | 0 | 9.1 | -1.2 | 19.3 | inactive |
| CDC27 | 1 | 0 | 7.8 | -9.9 | 25.5 | inactive |
| CD180 | 1 | 0 | 8.6 | 7.2 | 10 | inactive |
| GALNT3 | 1 | 0 | 2.8 | -5.6 | 11.1 | inactive |
| ID1 | 1 | 0 | 2.9 | 5 | 0.9 | inactive |
| LOC441504 | 1 | 0 | 8.8 | 7.2 | 10.4 | inactive |
| BIRC6 | 1 | -1 | -23.4 | -7.6 | -39.2 | inactive |
| SLC67A1-AS | 1 | 1 | 20.2 | 7.7 | 32.7 | inactive |
| SPRY2 | 1 | 0 | 2 | 9.7 | -5.6 | inactive |
| PFN1 | 1 | -1 | -1.4 | -29.7 | 26.9 | inactive |
| OR10R2 | 1 | 0 | 3.2 | 1 | 5.4 | inactive |
| OR10R2 | 2 | 2 | 15.2 | 16.8 | 13.5 | active |
| GAPDHP74 | 1 | 1 | 9.7 | 8 | 11.3 | inactive |
| PPARGC1B | 1 | 0 | 15.2 | 14.2 | 16.2 | inactive |
| DNAJC30 | 1 | 0 | 2.1 | 2.5 | 1.7 | inactive |
| LOC441008 | 1 | 0 | 0.5 | 0.8 | 0.1 | inactive |
| PCDH10 | 1 | 0 | 8 | 10.5 | 5.5 | inactive |
| NPY1R | 1 | 0 | -5.9 | -2 | -9.9 | inactive |
| WDR1 | 1 | 0 | -0.8 | 9 | -10.7 | inactive |

Individual results from above.
TECPR1, activity call: inactive
Under “protection from cisplatin (shift in death), siRNA D (%)”, LOC401624 is entered as 5.8
Entry of TYW5 in “mean protection from cisplatin (shift in death) (%)”: -3.6
MYEF2, mean protection from cisplatin (shift in death) (%) = 2.9
Under “mean protection from cisplatin (shift in death) (%)”, LACRT reads 18.9
Under “mean protection from cisplatin (shift in death) (%)”, BCL6 is entered as -3.7
